# Hit rate of the full screen: of about 330,000 compounds, about 610 (0.18%) were called active. Inconclusive results, whose numbers are uncertain, are shown with a selection of clear calls. Calls follow the shape of the full dose curve. Where the call is inconclusive, the potency comes from a doubtful curve fit.
# Experiment: qHTS of Yeast-based Assay for SARS-CoV PLP; also: nearly all actives have a fitted effect of over 55% in size; as to activity, positive = growth rescue: 0% is about no effect
# Conditions: S. cerevisiae expressing SARS-CoV PLpro; Potency: growth rescue; activity, positive = growth rescue: at 32.9 µM (top of the series)
# Potency is read from the fitted curve at half-maximal effect.
Compound,Potency,"activity, positive = growth rescue"
CCOc1cc(CNCCSc2nnnn2C)cc(Br)c1OCc1ccc(F)cc1,"inconclusive: 0.398 µM [activator, full curve, poor fit]",
C=CCN(c1ccccc1)S(=O)(=O)c1cccc(C(=O)NNC(=O)c2ccccc2O)c1,"inconclusive: 12.6 µM [activator, single point]",
CCOC(=O)[C@H]1[C@H]2COc3ccc(Br)cc3[C@@H]2N2C(=O)CN(Cc3ccco3)C(=O)[C@@]12C,"inconclusive: 3.16 µM [activator, single point]",
COC(=O)C1C2C=CC(C3CC23)C1C(=O)OCC(=O)c1ccc(OC)cc1 (stereo not given),"inconclusive: 14.1 µM [activator, partial curve]",
COc1ccc(CC(=O)NC(=S)NNC(=O)COc2c(C)cccc2C)cc1,"inconclusive: 20 µM [activator, partial curve]",
Cc1ccc2[nH]c3c(=O)n(CC(=O)NCc4ccco4)ncc3c2c1,"inconclusive: 3.98 µM [activator, full curve, poor fit]",
O=C(Cc1ccsc1)Nc1ccc(Cl)cc1Cl,"inconclusive: 3.98 µM [activator, partial curve]",
CC(C)OC(=O)/C(=C\C=C\c1ccccc1)NC(=O)c1ccccc1,"inconclusive: 4.47 µM [activator, single point]",
Cc1ccc(/C=C2\SC(=S)N(CCC(=O)NNC(=O)c3ccc(O)cc3)C2=O)cc1,"inconclusive: 20 µM [activator, single point]",
Cn1c(=O)c2c(nc(N/N=C/c3ccc(OC(=O)c4ccco4)cc3)n2Cc2ccc(F)cc2)n(C)c1=O,"inconclusive: 0.355 µM [activator, partial curve, poor fit]",
C#CCn1c(=NC(=O)c2cc(-c3cccs3)nc3ccccc23)sc2cc(S(N)(=O)=O)ccc21,,inactive: 8.84%
O=C(N[C@@H]1C[C@H]2CC[C@@H]1C2)c1ccco1,,inactive: 0.984%
COc1ccc(/C=C/C(=O)OCC(=O)NCc2ccco2)c(OC)c1,,inactive: -0.0767%
O=C(Nc1ccc([N+](=O)[O-])cc1)/C(=C/c1cccc([N+](=O)[O-])c1)NC(=O)C1CCCCC1,,inactive: 1.68%
C[n+]1cn(/N=C/c2ccccc2)c2ccccc21,"inconclusive: 22.4 µM [activator, partial curve, poor fit]",
Cc1cccc2c1cnn2C(=O)CCC(=O)NCc1ccc(F)cc1,"inconclusive: 4.47 µM [activator, single point]",
O=C(Nc1cccnc1)c1ccc2snnc2c1,,inactive: 2.25%
C/C(Cn1nnc([N+](=O)[O-])n1)=N\NC(=O)c1ccc(O)cc1O,"inconclusive: 22.4 µM [activator, single point]",
CS(=O)(=O)N(Cc1ccco1)CC(O)Cn1cc(C=O)c2ccccc21 (stereo not given),active: 10 µM,
O=C(Nc1nc(-c2ccccc2)cs1)c1ccc2c(=O)n3c(nc2c1)CCCCC3,"inconclusive: 4.47 µM [activator, single point]",
O=C(c1ccc(OC2CCN(CCc3ccccc3)CC2)cc1)N1CCCCC1CCCO (stereo not given),"inconclusive: 3.55 µM [activator, single point]",
COc1ccccc1NS(=O)(=O)c1cc(-c2cc(C)no2)ccc1OC,"inconclusive: 0.316 µM [activator, full curve, poor fit]",
CCN1CCN(C(=O)c2ccccc2NC(=O)c2ccc(Cl)cc2)CC1,"inconclusive: 3.98 µM [activator, full curve, poor fit]",
COc1cccc(-c2ccc(NC(=O)C3CCCN(Cc4cnn(C(C)C)c4)C3)cc2)c1 (stereo not given),"inconclusive: 20 µM [activator, single point]",

Compound,Potency,"activity, positive = growth rescue"
O=C(/C=C/c1ccc(Cl)cc1Cl)NCc1ccco1,"inconclusive: 3.98 µM [activator, single point]",
COc1cccc(NC(=S)N(CCc2ccc(OC)c(OC)c2)Cc2ccccn2)c1,"inconclusive: 11.2 µM [activator, single point]",
Cc1cc(NCCCN2CCOCC2)n2nc(C)c(-c3ccccc3)c2n1,,inactive: 8.14%
O=C(c1cccs1)N1CCN(Cc2ccccc2)CC1,"inconclusive: 7.94 µM [activator, partial curve]",
Cc1cccc(Nc2sc(C(=O)c3cc4cc(Cl)ccc4o3)c(N)c2C#N)c1,,inactive: -1.7%
CCCCNC(=O)C1CCN(S(=O)(=O)c2c(C)noc2/C=C\c2ccc(OC)cc2)CC1,"inconclusive: 20 µM [activator, single point]",
Cc1ccc(-c2nn(-c3ccccc3)cc2NC(=O)CCl)cc1,,inactive: -2.74%
OC(CNCCC(c1ccccc1)c1ccccc1)COc1ccccc1 (stereo not given),,inactive: 1.63%
O=C(N/N=C\c1cccc([N+](=O)[O-])c1O)C1COc2ccccc2O1 (stereo not given),active: 12.6 µM,
COc1ccc(C2=NN(C(N)=S)C(c3ccccc3)C2)cc1 (stereo not given),"inconclusive: 3.98 µM [activator, single point]",
Cc1cccc(-c2cc(C(=O)N3CCCc4ccccc43)c3ccccc3n2)c1,,inactive: -21.5%
Cc1csc(NC(=O)c2sc3nc(-c4cccs4)ccc3c2N)n1,"inconclusive: 2.24 µM [activator, single point]",
Cn1c(CN2CCN(c3ccc(Cl)cc3)CC2)nc2ccccc21,active: 8.91 µM,
CC(=O)c1ccc(NC(=O)Nc2cccc(Cl)c2)cc1,"inconclusive: 20 µM [activator, partial curve]",
CCCOc1nc(SCCC)nc2c1cnn2-c1ccccc1,,inactive: -1%
CCNC(=S)N/N=C/c1ccc(F)cc1,"inconclusive: 17.8 µM [activator, single point]",
COC(=O)C1CCN(C(=O)COC(=O)CSc2ccc(C(N)=O)cc2[N+](=O)[O-])CC1,,inactive: 0.002%
COC(=O)c1sc(NC(=O)COc2ccccc2OC)nc1C,,inactive: -2.65%
CC(=O)c1cccc(NS(=O)(=O)c2ccc(N/C=C\C(=O)c3ccc(F)cc3)cc2)c1,"inconclusive: 3.16 µM [activator, single point]",
COc1ccccc1CNC(=O)CCn1c(=O)oc2ccccc21,"inconclusive: 10 µM [activator, partial curve]",
CC(C)[C@H](NC(=O)N1CCn2c1nc1ccccc12)C(=O)N[C@@H](Cc1ccccc1)C(=O)O,"inconclusive: 20 µM [activator, single point]",
COc1ccc(-c2cc(=O)oc3cc(OCC(=O)N(C)C)ccc23)cc1,,inactive: -0.61%
Cc1c(C)n(CCN(C)C)c2ccc(C(=O)OCCN(C)C)cc12,"inconclusive: 3.55 µM [activator, single point]",
O=C(Cn1cnc2ccccc2c1=O)NCCC(=O)Nc1ccc2c(c1)OCCO2,,inactive: -1.93%

Compound,Potency,"activity, positive = growth rescue"
CNC(=O)c1ccc(NC(=O)CN2c3cccc4cccc(c34)S2(=O)=O)cc1,"inconclusive: 20 µM [activator, single point]",
CCCCn1c(=NC(=O)c2cccnc2)c(C(=O)OCC)cc2c(=O)n3ccccc3nc21,"inconclusive: 3.98 µM [activator, single point]",
O=C(Nc1ccc(Br)cc1F)c1ccc2c(c1)N(Cc1ccccc1)C(=O)CS2=O (stereo not given),"inconclusive: 20 µM [activator, partial curve]",
COc1ccc(OC)c(CNc2ccc3c(c2)CCC3)c1,"inconclusive: 3.98 µM [activator, single point]",
CCN(CC)S(=O)(=O)c1cccc(C(=O)N/N=C/c2cccc(O)c2O)c1,"inconclusive: 2.51 µM [activator, full curve]",
O=C(NCCS(=O)(=O)N1CCN(c2ccccc2)CC1)c1ccccc1F,,inactive: -5.75%
O=C(/C=C/Nc1ccc(S(=O)(=O)Nc2ncccn2)cc1)c1ccc(Cl)c(Cl)c1,"inconclusive: 0.355 µM [activator, partial curve, poor fit]",
COc1ccc(N/C=C\C(=O)c2ccc(Br)cc2)cc1OC,"inconclusive: 12.6 µM [activator, single point]",
C=C(C)CN(Cc1ccccc1)C(=S)Nc1ccccc1,"inconclusive: 1 µM [activator, full curve, poor fit]",
Cc1cc(SCC(=O)N/N=C/c2ccc(O)c(O)c2O)c(C)cc1Br,"inconclusive: 20 µM [activator, single point]",
Cc1ccc(-c2nn3c(C)nnc3s2)cc1NC(=O)c1ccc(-c2cccc(Cl)c2)o1,"inconclusive: 2.24 µM [activator, single point]",
Cc1ccc(Cl)cc1N1CCN(C(c2cccnc2)c2nnnn2C2CCCCC2)CC1 (stereo not given),,inactive: -0.508%
CCOC(=O)c1c[nH]c2ccc3ccccc3c2c1=O,"inconclusive: 1 µM [activator, full curve]",
O=C(CCCN1CCC(C(=O)c2ccc(F)cc2)CC1)c1ccc(F)cc1,,inactive: 3.4%
O=C(COC(=O)c1cccnc1)Nc1cccc2ccccc12,,inactive: 1.19%
CC(=O)Cn1cnc2c(cnn2-c2ccc(C)c(C)c2)c1=O,,inactive: -4.71%
CC1S/C(=C(\C#N)C(N)=O)N(c2ccc(F)cc2)C1=O (stereo not given),"inconclusive: 4.47 µM [activator, single point]",
CCOC(=O)N1CCN(S(=O)(=O)c2ccc(C(=O)NNc3nc4ccc(Cl)cc4s3)cc2)CC1,active: 10 µM,
O=C(N/N=C/c1cc([N+](=O)[O-])ccc1O)C12CC3CC(CC(C3)C1)C2,"inconclusive: 1.26 µM [activator, partial curve]",
CN=C1C([N+](=O)[O-])=CC=C2C1=NC1(CCCCC1)N2O,,inactive: -5.67%
CCOc1ccc(/C=N/NC(N)=S)cc1,"inconclusive: 0.316 µM [activator, full curve, poor fit]",
CNC(=S)NNC(=O)c1sc(-c2cc(C)on2)nc1C,,inactive: -0.0084%

# Reformatted with tabs: entries from further up.
Compound	Potency	activity, positive = growth rescue
CN=C1C([N+](=O)[O-])=CC=C2C1=NC1(CCCCC1)N2O		inactive: -5.67%
CCOc1ccc(/C=N/NC(N)=S)cc1	inconclusive: 0.316 µM [activator, full curve, poor fit]	
CNC(=S)NNC(=O)c1sc(-c2cc(C)on2)nc1C		inactive: -0.0084%

# Reference: PubChem BioAssay AID485353 (National Center for Advancing Translational Sciences (NCATS), 2010)
